Data published in the supplement of paper PMC10849652.
Some of the results follow.

The chains behind the UniProt entries cited, without tags or fusion partners. Where a name states a change or a piece, a line headed by the entry shows the natural chain unless it says otherwise.
UniProt Q5F1R6: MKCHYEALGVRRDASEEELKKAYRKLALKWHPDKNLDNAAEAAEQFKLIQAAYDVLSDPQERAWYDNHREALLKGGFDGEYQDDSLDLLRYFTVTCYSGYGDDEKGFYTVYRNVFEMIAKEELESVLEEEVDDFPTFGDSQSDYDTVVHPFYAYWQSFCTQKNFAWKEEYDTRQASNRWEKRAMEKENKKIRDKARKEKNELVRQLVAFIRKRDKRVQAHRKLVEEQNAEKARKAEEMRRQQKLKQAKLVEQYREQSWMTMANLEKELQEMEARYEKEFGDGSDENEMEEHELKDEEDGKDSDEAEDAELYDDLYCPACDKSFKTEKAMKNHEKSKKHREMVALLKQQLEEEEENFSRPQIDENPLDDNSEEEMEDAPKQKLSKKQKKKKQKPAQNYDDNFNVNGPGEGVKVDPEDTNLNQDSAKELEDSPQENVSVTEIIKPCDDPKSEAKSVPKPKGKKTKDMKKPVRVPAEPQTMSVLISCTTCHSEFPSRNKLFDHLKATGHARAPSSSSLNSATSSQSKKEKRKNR
UniProt Q9BVJ7: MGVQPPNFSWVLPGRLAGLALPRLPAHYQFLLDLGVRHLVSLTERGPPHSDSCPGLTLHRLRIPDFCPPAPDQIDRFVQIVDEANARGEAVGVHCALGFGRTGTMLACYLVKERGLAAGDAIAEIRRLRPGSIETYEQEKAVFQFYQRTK
UniProt Q8TEA8: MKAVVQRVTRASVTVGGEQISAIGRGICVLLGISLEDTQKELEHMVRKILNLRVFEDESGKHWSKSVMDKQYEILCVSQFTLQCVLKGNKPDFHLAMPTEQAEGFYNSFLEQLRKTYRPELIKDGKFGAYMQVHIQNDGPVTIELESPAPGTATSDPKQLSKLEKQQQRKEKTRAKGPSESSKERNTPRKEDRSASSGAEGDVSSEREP
UniProt Q9Y295: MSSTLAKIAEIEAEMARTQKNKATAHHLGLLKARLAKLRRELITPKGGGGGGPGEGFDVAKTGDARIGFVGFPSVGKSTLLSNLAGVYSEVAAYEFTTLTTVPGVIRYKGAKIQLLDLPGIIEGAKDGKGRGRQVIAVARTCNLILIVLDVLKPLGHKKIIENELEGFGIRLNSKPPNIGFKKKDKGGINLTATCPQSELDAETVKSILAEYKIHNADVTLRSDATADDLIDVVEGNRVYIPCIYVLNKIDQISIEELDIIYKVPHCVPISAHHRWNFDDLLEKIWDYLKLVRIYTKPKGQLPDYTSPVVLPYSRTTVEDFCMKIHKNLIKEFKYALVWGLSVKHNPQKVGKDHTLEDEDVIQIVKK
UniProt Q15125: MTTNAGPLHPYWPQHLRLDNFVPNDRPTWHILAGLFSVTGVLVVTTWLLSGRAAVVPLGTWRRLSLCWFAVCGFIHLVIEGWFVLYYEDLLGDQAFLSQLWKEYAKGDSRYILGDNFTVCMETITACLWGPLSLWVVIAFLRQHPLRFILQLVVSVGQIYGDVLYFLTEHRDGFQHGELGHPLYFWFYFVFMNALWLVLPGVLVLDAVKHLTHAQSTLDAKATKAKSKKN
UniProt O60762: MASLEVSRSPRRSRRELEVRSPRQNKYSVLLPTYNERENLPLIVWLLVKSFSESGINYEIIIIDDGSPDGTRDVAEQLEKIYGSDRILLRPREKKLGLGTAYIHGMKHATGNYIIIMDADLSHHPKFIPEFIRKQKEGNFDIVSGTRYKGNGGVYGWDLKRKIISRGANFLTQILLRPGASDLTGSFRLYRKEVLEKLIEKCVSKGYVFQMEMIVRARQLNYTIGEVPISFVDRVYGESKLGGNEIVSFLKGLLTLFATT
UniProt O00429, whole entry, looked up: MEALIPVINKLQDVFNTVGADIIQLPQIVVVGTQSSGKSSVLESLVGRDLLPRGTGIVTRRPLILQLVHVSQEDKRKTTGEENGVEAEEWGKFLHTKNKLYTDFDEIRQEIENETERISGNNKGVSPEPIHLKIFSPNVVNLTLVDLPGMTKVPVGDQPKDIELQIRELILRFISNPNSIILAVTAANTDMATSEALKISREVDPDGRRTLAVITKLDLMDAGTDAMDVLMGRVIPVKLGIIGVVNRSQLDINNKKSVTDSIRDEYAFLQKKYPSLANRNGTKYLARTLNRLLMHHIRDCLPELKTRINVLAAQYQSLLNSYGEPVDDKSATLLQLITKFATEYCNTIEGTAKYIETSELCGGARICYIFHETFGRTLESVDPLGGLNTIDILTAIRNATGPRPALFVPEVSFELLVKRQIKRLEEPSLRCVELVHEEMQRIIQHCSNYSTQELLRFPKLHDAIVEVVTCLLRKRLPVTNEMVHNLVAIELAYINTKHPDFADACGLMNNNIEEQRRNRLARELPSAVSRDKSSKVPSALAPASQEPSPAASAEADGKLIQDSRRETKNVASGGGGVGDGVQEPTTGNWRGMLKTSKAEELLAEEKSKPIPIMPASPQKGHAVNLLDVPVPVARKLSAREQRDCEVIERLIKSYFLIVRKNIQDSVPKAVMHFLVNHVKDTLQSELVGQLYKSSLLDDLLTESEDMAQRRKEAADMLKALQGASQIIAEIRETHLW
UniProt O00559: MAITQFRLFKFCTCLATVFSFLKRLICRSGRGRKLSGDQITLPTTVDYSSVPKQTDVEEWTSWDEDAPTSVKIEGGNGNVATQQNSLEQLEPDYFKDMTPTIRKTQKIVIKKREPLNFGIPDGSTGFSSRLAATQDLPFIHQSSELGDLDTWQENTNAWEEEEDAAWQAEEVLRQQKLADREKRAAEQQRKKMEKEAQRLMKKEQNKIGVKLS
UniProt P51452: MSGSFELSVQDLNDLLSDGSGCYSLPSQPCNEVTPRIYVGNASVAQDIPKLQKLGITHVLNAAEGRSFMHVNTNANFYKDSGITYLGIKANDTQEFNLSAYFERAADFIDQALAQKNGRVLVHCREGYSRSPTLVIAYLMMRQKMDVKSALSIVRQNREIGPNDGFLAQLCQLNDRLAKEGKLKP
UniProt Q14919: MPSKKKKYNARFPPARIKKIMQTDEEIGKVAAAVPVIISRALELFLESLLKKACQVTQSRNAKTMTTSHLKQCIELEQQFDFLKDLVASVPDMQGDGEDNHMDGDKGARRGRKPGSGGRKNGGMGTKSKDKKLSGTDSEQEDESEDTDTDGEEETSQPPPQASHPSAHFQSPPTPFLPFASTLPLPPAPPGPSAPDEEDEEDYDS
UniProt P55039: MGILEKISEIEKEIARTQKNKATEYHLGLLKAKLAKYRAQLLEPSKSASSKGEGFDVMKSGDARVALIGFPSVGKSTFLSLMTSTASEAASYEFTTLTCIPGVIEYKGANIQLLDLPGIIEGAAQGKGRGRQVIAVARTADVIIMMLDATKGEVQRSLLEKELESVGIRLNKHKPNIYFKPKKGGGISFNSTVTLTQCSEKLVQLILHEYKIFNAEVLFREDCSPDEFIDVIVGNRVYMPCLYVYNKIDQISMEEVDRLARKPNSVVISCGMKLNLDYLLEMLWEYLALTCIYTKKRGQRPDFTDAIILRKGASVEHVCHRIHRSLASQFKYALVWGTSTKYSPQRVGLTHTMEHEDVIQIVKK
UniProt P63167, whole entry, looked up: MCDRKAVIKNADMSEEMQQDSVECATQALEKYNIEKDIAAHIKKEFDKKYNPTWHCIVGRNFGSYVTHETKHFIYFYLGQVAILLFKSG
UniProt Q96N67: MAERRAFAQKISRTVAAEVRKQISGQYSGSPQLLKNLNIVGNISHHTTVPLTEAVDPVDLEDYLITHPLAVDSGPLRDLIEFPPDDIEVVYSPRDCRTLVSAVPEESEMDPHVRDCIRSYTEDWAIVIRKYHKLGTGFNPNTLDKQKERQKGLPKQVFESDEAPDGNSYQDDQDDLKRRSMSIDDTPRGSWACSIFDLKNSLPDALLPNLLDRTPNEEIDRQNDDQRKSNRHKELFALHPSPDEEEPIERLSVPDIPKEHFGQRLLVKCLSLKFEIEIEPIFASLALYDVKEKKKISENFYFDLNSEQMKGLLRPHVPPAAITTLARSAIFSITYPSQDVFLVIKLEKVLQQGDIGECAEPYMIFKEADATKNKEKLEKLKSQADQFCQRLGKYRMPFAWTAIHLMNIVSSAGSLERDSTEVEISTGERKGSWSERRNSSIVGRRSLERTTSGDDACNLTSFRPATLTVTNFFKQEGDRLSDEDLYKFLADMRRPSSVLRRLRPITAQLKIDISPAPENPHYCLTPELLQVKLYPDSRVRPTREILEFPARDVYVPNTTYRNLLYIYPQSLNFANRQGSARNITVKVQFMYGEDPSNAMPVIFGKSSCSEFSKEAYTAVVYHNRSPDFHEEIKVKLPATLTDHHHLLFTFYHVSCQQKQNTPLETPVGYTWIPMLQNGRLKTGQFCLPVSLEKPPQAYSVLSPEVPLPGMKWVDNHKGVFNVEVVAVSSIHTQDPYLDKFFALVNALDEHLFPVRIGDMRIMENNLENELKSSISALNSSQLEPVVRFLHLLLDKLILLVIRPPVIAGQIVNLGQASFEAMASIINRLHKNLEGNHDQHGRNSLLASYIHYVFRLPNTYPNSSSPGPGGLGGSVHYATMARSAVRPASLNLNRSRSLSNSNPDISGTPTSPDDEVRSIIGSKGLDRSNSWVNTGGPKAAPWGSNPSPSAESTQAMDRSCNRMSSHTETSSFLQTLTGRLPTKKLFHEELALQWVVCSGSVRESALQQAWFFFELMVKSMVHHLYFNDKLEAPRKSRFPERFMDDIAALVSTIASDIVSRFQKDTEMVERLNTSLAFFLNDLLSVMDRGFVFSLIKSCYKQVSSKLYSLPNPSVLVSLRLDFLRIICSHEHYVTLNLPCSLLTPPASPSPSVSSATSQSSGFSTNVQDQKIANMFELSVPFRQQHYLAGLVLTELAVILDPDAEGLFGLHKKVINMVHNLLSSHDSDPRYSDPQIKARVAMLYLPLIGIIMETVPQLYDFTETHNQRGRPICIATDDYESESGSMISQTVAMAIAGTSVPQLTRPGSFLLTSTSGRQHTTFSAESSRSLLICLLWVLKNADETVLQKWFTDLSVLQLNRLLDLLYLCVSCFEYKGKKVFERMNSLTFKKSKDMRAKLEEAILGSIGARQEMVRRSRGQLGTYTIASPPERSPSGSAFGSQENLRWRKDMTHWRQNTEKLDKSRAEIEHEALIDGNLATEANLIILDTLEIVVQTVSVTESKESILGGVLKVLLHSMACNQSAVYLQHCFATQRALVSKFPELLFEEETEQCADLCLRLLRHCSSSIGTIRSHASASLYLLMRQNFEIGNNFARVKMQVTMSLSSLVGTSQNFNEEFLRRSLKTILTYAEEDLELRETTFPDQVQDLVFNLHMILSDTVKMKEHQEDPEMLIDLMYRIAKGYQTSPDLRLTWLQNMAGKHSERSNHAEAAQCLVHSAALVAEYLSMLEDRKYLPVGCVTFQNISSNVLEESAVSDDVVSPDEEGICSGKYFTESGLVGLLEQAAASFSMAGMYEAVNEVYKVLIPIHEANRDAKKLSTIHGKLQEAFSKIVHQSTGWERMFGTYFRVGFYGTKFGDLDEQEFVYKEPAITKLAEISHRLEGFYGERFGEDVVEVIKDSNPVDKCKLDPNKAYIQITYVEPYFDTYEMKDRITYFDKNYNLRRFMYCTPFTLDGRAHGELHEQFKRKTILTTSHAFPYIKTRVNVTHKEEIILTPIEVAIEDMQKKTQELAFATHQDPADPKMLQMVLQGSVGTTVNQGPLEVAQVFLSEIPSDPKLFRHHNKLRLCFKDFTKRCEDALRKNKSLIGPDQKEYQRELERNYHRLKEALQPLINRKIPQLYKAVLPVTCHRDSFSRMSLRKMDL
UniProt Q6ZPD9: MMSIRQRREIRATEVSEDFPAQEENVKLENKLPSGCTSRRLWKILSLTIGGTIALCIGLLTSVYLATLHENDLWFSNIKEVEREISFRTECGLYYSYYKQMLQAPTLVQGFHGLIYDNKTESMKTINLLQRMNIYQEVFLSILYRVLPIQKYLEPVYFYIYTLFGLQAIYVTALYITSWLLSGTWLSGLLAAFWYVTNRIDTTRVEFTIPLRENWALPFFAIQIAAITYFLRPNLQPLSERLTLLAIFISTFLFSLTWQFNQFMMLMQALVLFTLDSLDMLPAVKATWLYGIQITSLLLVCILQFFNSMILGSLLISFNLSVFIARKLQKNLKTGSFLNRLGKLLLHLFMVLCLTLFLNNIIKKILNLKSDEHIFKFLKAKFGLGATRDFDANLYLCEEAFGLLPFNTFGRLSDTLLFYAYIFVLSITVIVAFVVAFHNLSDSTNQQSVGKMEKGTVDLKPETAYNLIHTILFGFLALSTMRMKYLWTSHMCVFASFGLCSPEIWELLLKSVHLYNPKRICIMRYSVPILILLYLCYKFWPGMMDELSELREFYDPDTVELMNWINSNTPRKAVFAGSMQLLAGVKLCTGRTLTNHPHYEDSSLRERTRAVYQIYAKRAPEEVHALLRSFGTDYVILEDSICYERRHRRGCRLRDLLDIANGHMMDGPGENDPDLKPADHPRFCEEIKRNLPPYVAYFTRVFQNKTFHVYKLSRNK
UniProt O43598: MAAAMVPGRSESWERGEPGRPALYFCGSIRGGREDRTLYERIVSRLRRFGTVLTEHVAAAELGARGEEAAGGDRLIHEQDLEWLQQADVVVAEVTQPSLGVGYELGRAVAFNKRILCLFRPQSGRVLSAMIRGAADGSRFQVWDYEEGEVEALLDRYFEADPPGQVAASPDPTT

How the values were obtained:
Assay in all cases: log2 fold change, soluble protein after heating vs DMSO (PISA); higher = thermal stabilisation; K562 cells, 10 uM, 30 min; active = over 0.2 and 3.5 SD of the protein, either way, in both replicates (recomputed)
[1] = compound: NC(=O)Nc1cc(-c2cccc(F)c2)sc1C(=O)N[C@H]1CCCNC1
Procedure, shortened: (§1)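 K562 cells (2×10^6 cells/mL) were treated with 10 μM compound for 30 min, and aliquots were heated for 3 min over 48°C-58°C. Pooled aliquots were extracted in PBS with 0.5% NP-40 at 4°C, and the supernatant after 21,000xg for 90 min was measured by TMTpro 16plex LC-MS/MS with channel sums equalised. Reported thermal stability, relative to control samples and from duplicates, is a log2 fold change.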

[2] = compound: NC(=O)c1cnc(N[C@@H]2CCCC[C@@H]2N)nc1Nc1cccc(-n2nccn2)c1
Procedure, shortened: as §1

[3] = compound: NC1(c2ccc(-c3nc4ccn5c(=O)[nH]nc5c4cc3-c3ccccc3)cc2)CCC1
Procedure, shortened: as §1

[4] = compound: NCC(=O)Nc1ccc(-n2nc(C(F)(F)F)cc2-c2ccc3c(ccc4ccccc43)c2)cc1
Procedure, shortened: as §1

entinostat = compound: Nc1ccccc1NC(=O)c1ccc(CNC(=O)OCc2cccnc2)cc1 [entinostat]
Procedure, shortened: as §1

vorinostat = compound: O=C(CCCCCCC(=O)Nc1ccccc1)NO [vorinostat]
Procedure, shortened: as §1

citarinostat = compound: O=C(CCCCCCNC(=O)c1cnc(N(c2ccccc2)c2ccccc2Cl)nc1)NO [citarinostat]
Procedure, shortened: as §1

silmitasertib = compound: O=C(O)c1ccc2c(c1)nc(Nc1cccc(Cl)c1)c1ccncc12 [silmitasertib]
Procedure, shortened: as §1

[5] = compound: O=C1NC(=O)C(c2cnc3ccccn23)=C1c1cn2c3c(cc(F)cc13)CN(C(=O)N1CCCCC1)CC2
Procedure, shortened: as §1

[6] = compound: c1cc(OCCN2CCCCC2)cc(-c2n[nH]c3ccc(-c4nnc[nH]4)cc23)c1
Procedure, shortened: as §1

entospletinib = compound: c1cn2cc(-c3ccc4cn[nH]c4c3)nc(Nc3ccc(N4CCOCC4)cc3)c2n1 [entospletinib]
Procedure, shortened: as §1

Measured: log2 fold change

DNAJC21 isoform 3 (UniProt Q5F1R6)
inactive: [1] -0.099 | [2] 0.045 | [3] 0.062 | [4] -0.021 | entinostat -0.017 | vorinostat 0.085 | citarinostat -0.042 | silmitasertib 0.035 | [5] 0.084 | [6] -0.092 | entospletinib -0.012

DUSP23 (UniProt Q9BVJ7)
inactive: [1] -0.016 | [2] -0.03 | [3] -0.057 | [4] -0.055 | entinostat 0.033 | vorinostat -0.027 | citarinostat 0.055 | silmitasertib 0.033 | [5] -0.066 | [6] -0.03 | entospletinib 0.046

DNAJC9 (UniProt Q8WXX5)
inactive: [1] -0.017 | [2] -0.105 | [3] -0.05 | [4] -0.076 | entinostat 0.027 | vorinostat -0.01 | citarinostat 0.055 | silmitasertib -0.009 | [5] -0.066 | [6] -0.022 | entospletinib -0.016

DTD1 (UniProt Q8TEA8)
inactive: [1] 0.008 | [2] -0.033 | [3] -0.007 | [4] 0.045 | entinostat -0.02 | vorinostat 0.104 | citarinostat 0.006 | silmitasertib -0.044 | [5] -0.007 | [6] 0.024 | entospletinib -0.01

DRG1 (UniProt Q9Y295)
inactive: [1] -0.089 | [2] -0.035 | [3] 0.071 | [4] 0 | entinostat -0.032 | vorinostat -0.017 | citarinostat -0.029 | silmitasertib 0.049 | [5] 0.016 | [6] -0.085 | entospletinib 0.042

DPP8 (UniProt Q6V1X1)
inactive: [1] -0.243 | [2] -0.126 | [3] -0.04 | [4] -0.079 | entinostat -0.124 | vorinostat -0.021 | silmitasertib 0.063 | [5] -0.114 | [6] 0.219
active: citarinostat -0.325 | entospletinib -0.377

ECHS1 (UniProt P30084)
inactive: [1] -0.041 | [2] 0.018 | [3] -0.004 | [4] 0.018 | entinostat -0.017 | vorinostat 0.016 | citarinostat 0.123 | silmitasertib -0.061 | [5] -0.047 | [6] 0.043 | entospletinib -0.045

EBP (UniProt Q15125)
inactive: [1] 0.022 | [2] 0.012 | [3] -0.054 | [4] -0.065 | entinostat 0.028 | vorinostat -0.014 | citarinostat 0.05 | silmitasertib -0.125 | [5] 0.058 | [6] 0.006 | entospletinib 0.004

DPM1 (UniProt O60762)
inactive: [1] -0.008 | [2] -0.005 | [3] -0.067 | [4] -0.03 | entinostat -0.01 | vorinostat 0.01 | citarinostat 0.032 | silmitasertib -0.005 | [5] -0.048 | [6] -0.06 | entospletinib 0.104

Reprinted at random: 2 entries already listed
DPM1 (UniProt O60762)
inactive: [1] -0.008 | [2] -0.005 | [3] -0.067 | [4] -0.03 | entinostat -0.01 | vorinostat 0.01 | citarinostat 0.032 | silmitasertib -0.005 | [5] -0.048 | [6] -0.06 | entospletinib 0.104

DPP8 (UniProt Q6V1X1)
inactive: [1] -0.243 | [2] -0.126 | [3] -0.04 | [4] -0.079 | entinostat -0.124 | vorinostat -0.021 | silmitasertib 0.063 | [5] -0.114 | [6] 0.219
active: citarinostat -0.325 | entospletinib -0.377

More results follow.

DYNC1LI1 (UniProt Q9Y6G9)
inactive: [1] -0.056 | [2] -0.078 | [3] -0.11 | [4] -0.037 | entinostat 0.017 | vorinostat 0.013 | citarinostat 0.036 | silmitasertib -0.046 | [5] -0.028 | [6] -0.031 | entospletinib 0.041

DNM1L isoform 6 (UniProt O00429)
inactive: [1] -0.046 | [2] -0.039 | [3] -0.096 | [4] -0.063 | entinostat 0.012 | vorinostat 0.009 | citarinostat 0.028 | silmitasertib 0.005 | [5] -0.007 | [6] 0.004 | entospletinib -0.051

EBAG9 isoform 2 (UniProt O00559)
inactive: [1] 0.008 | [2] 0.171 | [3] 0.059 | [4] -0.004 | entinostat -0.054 | vorinostat 0.11 | citarinostat -0.033 | silmitasertib -0.05 | [5] 0.057 | [6] 0.02 | entospletinib -0.107

DYNC1H1 (UniProt Q14204)
inactive: [1] -0.017 | [2] -0.03 | [3] -0.121 | [4] -0.005 | entinostat 0.003 | vorinostat 0.029 | citarinostat 0.021 | silmitasertib -0.018 | [5] -0.034 | [6] -0.028 | entospletinib -0.003

DUSP3 (UniProt P51452)
inactive: [1] -0.021 | [2] -0.02 | [3] 0.013 | [4] -0.015 | entinostat 0.048 | vorinostat 0.05 | citarinostat 0.021 | silmitasertib 0.055 | [5] -0.026 | [6] 0.006 | entospletinib 0.055

DRAP1 isoform 2 (UniProt Q14919)
inactive: [1] -0.024 | [2] 0.052 | [3] -0.05 | [4] 0.025 | entinostat -0.005 | vorinostat -0.097 | citarinostat 0 | silmitasertib -0.016 | [5] -0.039 | [6] 0.022 | entospletinib 0.014

DRG2 (UniProt P55039)
inactive: [1] -0.019 | [2] -0.07 | [3] -0.089 | [4] -0.004 | entinostat -0.019 | vorinostat -0.014 | citarinostat 0.048 | silmitasertib 0.014 | [5] -0.043 | [6] -0.027 | entospletinib -0.002

DST (UniProt Q03001)
inactive: [1] -0.194 | [2] -0.186 | [3] -0.36 | [4] -0.095 | entinostat -0.098 | vorinostat 0.07 | citarinostat -0.036 | silmitasertib 0.156 | [5] -0.201 | [6] -0.084 | entospletinib 0.041

DYNLL1 (UniProt P63167)
inactive: [1] 0.015 | [2] 0.017 | [3] 0.035 | [4] 0.031 | entinostat 0.099 | vorinostat -0.046 | citarinostat 0.032 | silmitasertib 0.022 | [5] -0.053 | [6] -0.124 | entospletinib 0.105

DNAJC10 (UniProt Q8IXB1)
inactive: [1] 0.073 | [2] 0.012 | [3] 0 | [4] 0.101 | entinostat 0.014 | vorinostat -0.028 | citarinostat 0.004 | silmitasertib 0.003 | [5] 0.074 | [6] -0.07 | entospletinib 0.024

DYSF isoform 13 (UniProt O75923)
inactive: [1] -0.093 | [2] -0.011 | [3] -0.026 | [4] 0.051 | entinostat -0.091 | vorinostat 0.011 | citarinostat -0.482 | silmitasertib 0.016 | [5] -0.026 | [6] -0.007 | entospletinib 0.155

DOCK7 (UniProt Q96N67)
inactive: [1] -0.018 | [2] 0.019 | [3] -0.109 | [4] -0.032 | entinostat 0.044 | vorinostat 0.017 | citarinostat 0.028 | silmitasertib -0.06 | [5] -0.04 | [6] -0.069 | entospletinib -0.066

DPY19L3 (UniProt Q6ZPD9)
inactive: [1] -0.025 | [2] -0.019 | [3] 0.043 | [4] 0.032 | entinostat -0.058 | vorinostat 0 | citarinostat -0.026 | silmitasertib 0.057 | [5] 0.026 | [6] -0.067 | entospletinib 0.09

ECHDC1 (UniProt Q9NTX5)
inactive: [1] -0.009 | [2] -0.015 | [3] -0.006 | [4] -0.051 | entinostat -0.022 | vorinostat -0.074 | citarinostat 0.015 | silmitasertib -0.003 | [5] -0.079 | [6] -0.011 | entospletinib 0.008

ECSIT (UniProt Q9BQ95)
inactive: [1] -0.003 | [2] -0.019 | [3] -0.024 | [4] -0.055 | entinostat -0.021 | vorinostat 0.005 | citarinostat 0.03 | silmitasertib 0.014 | [5] -0.097 | [6] 0.027 | entospletinib 0.019

DPP7 (UniProt Q9UHL4)
inactive: [1] 0.007 | [2] 0.025 | [3] -0.029 | [4] 0.009 | entinostat -0.032 | vorinostat -0.026 | citarinostat 0.014 | silmitasertib 0.024 | [5] 0.07 | [6] -0.049 | entospletinib 0.021

DNPEP (UniProt Q9ULA0)
inactive: [1] 0.082 | [2] 0.069 | [3] 0.018 | [4] 0.05 | entinostat -0.007 | vorinostat 0.012 | citarinostat 0.029 | silmitasertib -0.036 | [5] 0.021 | [6] 0.013 | entospletinib -0.025

DNPH1 (UniProt O43598)
inactive: [1] -0.001 | [2] 0.05 | [3] 0.007 | [4] 0.089 | entinostat -0.056 | vorinostat -0.001 | citarinostat 0.036 | silmitasertib -0.03 | [5] -0.04 | [6] -0.008 | entospletinib 0.026
